No constants are given. Whether binding was seen depends on the method and setting. In cells and extracts the contact can be indirect. These calls come from enrichment with a bait or labelling near it, and not all partners need be listed. Where a sequence is shown, tags or fusion partners need not be part of it.
Biological target: T1, PPP2R2B-FLAG (serine/threonine protein phosphatase 2A regulatory subunit PPP2R2B) (human) (UniProt Q00005)
T1 sequence: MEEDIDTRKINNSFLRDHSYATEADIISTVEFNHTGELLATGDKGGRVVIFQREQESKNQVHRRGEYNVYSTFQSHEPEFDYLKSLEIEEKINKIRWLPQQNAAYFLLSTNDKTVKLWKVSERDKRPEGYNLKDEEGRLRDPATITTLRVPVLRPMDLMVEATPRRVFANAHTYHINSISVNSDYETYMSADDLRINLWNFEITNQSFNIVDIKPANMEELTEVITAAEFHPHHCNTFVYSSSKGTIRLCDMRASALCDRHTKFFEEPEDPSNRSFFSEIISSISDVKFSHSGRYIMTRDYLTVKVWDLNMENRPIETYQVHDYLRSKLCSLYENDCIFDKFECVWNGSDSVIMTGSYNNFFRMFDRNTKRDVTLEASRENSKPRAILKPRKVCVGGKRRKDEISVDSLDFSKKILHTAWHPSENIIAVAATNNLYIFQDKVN
Assay: affinity purification with mass spectrometry; lysate of cells transfected with PPP2R2B-FLAG or vector control; anti-FLAG magnetic beads overnight at 4 °C; eluted in SDS buffer; MS

Amino acid sequences for entries named in this document (tags omitted). Residues count along the entry.
UniProt O00410: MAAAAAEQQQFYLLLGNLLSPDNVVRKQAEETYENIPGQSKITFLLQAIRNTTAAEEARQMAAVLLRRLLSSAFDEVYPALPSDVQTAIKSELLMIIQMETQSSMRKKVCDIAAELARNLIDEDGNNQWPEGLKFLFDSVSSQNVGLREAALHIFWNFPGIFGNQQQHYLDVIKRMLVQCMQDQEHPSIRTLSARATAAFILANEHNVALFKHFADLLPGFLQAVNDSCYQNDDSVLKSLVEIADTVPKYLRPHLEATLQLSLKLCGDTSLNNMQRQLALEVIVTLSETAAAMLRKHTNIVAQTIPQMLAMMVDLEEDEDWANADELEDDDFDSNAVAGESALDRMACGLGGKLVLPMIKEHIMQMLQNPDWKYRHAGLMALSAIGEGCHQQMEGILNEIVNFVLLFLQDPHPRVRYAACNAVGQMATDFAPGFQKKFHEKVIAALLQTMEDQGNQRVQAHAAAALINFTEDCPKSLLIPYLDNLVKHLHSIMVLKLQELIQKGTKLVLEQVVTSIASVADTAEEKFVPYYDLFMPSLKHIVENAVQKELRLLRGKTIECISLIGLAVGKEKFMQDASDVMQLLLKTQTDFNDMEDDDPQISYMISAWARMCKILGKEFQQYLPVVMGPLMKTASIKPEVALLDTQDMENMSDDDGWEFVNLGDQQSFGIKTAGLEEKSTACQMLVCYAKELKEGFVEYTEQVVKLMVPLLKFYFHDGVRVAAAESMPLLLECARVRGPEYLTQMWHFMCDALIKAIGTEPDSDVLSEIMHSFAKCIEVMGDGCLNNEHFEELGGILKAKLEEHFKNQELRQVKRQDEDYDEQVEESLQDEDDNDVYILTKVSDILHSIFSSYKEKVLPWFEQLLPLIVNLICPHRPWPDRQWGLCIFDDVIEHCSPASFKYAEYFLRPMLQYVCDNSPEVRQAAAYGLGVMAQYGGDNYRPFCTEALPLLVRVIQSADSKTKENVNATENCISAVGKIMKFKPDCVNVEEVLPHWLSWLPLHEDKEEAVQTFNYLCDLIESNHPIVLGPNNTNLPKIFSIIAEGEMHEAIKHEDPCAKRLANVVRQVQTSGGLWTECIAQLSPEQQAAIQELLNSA
UniProt P05161, residues 1-157: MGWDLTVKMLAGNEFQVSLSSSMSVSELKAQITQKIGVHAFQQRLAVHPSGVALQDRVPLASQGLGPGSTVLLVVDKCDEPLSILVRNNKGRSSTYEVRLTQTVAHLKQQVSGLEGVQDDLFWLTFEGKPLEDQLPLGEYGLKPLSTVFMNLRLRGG

## importin 5 (IPO5) (from UniProt O00410 1-1097)
  binding: binds

## interferon stimulated gene 15 (ISG15) (from UniProt P05161 1-157)
  binding: binds

B1: MX2 (protein, UniProt P20592 1-715)
chain: MSKAHKPWPYRRRSQFSSRKYLKKEMNSFQQQPPPFGTVPPQMMFPPNWQGAEKDAAFLAKDFNFLTLNNQPPPGNRSQPRAMGPENNLYSQYEQKVRPCIDLIDSLRALGVEQDLALPAIAVIGDQSSGKSSVLEALSGVALPRGSGIVTRCPLVLKLKKQPCEAWAGRISYRNTELELQDPGQVEKEIHKAQNVMAGNGRGISHELISLEITSPEVPDLTIIDLPGITRVAVDNQPRDIGLQIKALIKKYIQRQQTINLVVVPCNVDIATTEALSMAHEVDPEGDRTIGILTKPDLMDRGTEKSVMNVVRNLTYPLKKGYMIVKCRGQQEITNRLSLAEATKKEITFFQTHPYFRVLLEEGSATVPRLAERLTTELIMHIQKSLPLLEGQIRESHQKATEELRRCGADIPSQEADKMFFLIEKIKMFNQDIEKLVEGEEVVRENETRLYNKIREDFKNWVGILATNTQKVKNIIHEEVEKYEKQYRGKELLGFVNYKTFEIIVHQYIQQLVEPALSMLQKAMEIIQQAFINVAKKHFGEFFNLNQTVQSTIEDIKVKHTAKAENMIQLQFRMEQMVFCQDQIYSVVLKKVREEIFNPLGTPSQNMKLNSHFPSNESSVSSFTEIGIHLNAYFLETSKRLANQIPFIIQYFMLRENGDSLQKAMMQILQEKNRYSWLLQEQSETATKRRILKERIYRLTQARHALCQFSSKEIH
  binding: binds

Source: paper PMC11335216
